From the supplement of paper PMC10849652
Some of the results follow.

Amino acid sequences for entries named in this document (tags omitted). A change or cut given only in a name is not applied to a line headed by its entry.
UniProt P22392, whole entry, looked up: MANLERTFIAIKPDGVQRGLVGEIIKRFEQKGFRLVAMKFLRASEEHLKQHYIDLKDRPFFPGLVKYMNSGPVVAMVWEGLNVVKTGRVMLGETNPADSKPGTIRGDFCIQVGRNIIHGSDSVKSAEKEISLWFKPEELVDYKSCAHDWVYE
UniProt Q13287: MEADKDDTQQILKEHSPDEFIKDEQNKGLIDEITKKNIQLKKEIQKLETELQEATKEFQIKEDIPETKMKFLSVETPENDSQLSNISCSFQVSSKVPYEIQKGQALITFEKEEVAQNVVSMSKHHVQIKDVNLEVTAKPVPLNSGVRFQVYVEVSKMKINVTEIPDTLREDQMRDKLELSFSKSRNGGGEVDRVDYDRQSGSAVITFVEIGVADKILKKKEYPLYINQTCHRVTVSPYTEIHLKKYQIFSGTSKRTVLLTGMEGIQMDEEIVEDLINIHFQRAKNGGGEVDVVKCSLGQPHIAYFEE
UniProt P48645: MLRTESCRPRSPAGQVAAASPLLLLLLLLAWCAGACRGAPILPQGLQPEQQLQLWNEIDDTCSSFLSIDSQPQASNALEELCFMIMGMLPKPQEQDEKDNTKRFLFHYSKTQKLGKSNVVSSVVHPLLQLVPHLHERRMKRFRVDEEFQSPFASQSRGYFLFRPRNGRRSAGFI
UniProt Q9GZT8: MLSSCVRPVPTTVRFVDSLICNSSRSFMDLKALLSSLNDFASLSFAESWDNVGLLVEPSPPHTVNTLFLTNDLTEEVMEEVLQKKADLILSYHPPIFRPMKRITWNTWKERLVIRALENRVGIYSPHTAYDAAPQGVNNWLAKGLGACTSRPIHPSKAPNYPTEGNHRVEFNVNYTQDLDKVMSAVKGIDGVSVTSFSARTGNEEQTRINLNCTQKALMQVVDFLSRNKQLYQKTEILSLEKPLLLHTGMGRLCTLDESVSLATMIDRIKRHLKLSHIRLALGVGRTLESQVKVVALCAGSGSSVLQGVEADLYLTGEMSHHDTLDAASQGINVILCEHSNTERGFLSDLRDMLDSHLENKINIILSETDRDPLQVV
UniProt Q12857, whole entry, looked up: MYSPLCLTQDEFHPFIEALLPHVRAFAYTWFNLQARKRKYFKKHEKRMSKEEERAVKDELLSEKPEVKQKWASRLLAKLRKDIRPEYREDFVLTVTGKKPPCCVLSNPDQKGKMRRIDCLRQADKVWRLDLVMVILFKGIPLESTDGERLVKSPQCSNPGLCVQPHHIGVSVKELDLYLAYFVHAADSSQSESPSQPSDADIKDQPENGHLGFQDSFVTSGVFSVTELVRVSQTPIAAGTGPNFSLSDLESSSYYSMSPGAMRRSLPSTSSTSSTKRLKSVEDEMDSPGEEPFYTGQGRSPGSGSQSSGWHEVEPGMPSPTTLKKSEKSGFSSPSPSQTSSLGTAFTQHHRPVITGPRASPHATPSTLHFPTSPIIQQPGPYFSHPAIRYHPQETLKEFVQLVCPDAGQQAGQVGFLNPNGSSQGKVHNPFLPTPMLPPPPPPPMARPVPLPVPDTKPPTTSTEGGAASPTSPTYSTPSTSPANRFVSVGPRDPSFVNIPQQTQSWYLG
UniProt Q8N8Q9: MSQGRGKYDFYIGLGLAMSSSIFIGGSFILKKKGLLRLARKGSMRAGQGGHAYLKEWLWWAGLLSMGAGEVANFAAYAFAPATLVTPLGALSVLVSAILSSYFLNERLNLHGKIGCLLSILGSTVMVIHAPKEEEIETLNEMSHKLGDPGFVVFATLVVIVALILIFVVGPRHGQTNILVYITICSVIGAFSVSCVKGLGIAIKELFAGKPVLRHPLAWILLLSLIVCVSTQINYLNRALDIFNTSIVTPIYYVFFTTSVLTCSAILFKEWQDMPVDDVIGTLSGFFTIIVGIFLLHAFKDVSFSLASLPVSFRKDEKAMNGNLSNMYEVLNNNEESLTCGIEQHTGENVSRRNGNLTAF
UniProt Q9UNZ2: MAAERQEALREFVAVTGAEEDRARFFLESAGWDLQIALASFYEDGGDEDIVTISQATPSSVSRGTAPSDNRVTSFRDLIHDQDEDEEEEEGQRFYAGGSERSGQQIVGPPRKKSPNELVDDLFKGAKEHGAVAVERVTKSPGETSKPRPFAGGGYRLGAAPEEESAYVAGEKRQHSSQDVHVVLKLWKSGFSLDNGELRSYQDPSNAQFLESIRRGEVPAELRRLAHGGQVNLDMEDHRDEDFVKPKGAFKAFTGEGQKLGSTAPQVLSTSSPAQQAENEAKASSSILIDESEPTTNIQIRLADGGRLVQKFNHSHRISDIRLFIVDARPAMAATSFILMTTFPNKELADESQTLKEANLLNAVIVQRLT
UniProt P15559, whole entry, looked up: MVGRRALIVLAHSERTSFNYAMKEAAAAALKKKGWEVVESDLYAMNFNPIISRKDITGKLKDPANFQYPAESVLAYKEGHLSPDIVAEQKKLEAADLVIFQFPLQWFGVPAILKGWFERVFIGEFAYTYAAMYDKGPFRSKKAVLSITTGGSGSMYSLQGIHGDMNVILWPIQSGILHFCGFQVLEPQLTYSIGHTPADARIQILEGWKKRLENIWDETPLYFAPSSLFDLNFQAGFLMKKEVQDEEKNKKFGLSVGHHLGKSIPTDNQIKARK
UniProt Q8TAT6: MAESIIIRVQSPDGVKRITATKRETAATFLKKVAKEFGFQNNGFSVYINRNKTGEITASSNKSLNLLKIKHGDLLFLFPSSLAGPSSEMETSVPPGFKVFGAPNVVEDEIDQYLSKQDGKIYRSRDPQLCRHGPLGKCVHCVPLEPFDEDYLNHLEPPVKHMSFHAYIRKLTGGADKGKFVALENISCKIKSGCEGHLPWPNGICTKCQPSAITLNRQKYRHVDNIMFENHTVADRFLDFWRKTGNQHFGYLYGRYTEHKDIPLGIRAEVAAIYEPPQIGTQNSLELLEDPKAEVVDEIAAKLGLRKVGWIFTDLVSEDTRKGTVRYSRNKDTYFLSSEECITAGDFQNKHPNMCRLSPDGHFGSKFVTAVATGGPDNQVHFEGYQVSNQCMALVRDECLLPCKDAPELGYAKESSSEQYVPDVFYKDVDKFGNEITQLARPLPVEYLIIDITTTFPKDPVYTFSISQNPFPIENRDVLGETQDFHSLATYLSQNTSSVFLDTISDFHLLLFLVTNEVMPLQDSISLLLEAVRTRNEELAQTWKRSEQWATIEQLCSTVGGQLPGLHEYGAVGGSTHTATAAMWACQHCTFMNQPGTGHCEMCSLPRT
UniProt Q5JPE7: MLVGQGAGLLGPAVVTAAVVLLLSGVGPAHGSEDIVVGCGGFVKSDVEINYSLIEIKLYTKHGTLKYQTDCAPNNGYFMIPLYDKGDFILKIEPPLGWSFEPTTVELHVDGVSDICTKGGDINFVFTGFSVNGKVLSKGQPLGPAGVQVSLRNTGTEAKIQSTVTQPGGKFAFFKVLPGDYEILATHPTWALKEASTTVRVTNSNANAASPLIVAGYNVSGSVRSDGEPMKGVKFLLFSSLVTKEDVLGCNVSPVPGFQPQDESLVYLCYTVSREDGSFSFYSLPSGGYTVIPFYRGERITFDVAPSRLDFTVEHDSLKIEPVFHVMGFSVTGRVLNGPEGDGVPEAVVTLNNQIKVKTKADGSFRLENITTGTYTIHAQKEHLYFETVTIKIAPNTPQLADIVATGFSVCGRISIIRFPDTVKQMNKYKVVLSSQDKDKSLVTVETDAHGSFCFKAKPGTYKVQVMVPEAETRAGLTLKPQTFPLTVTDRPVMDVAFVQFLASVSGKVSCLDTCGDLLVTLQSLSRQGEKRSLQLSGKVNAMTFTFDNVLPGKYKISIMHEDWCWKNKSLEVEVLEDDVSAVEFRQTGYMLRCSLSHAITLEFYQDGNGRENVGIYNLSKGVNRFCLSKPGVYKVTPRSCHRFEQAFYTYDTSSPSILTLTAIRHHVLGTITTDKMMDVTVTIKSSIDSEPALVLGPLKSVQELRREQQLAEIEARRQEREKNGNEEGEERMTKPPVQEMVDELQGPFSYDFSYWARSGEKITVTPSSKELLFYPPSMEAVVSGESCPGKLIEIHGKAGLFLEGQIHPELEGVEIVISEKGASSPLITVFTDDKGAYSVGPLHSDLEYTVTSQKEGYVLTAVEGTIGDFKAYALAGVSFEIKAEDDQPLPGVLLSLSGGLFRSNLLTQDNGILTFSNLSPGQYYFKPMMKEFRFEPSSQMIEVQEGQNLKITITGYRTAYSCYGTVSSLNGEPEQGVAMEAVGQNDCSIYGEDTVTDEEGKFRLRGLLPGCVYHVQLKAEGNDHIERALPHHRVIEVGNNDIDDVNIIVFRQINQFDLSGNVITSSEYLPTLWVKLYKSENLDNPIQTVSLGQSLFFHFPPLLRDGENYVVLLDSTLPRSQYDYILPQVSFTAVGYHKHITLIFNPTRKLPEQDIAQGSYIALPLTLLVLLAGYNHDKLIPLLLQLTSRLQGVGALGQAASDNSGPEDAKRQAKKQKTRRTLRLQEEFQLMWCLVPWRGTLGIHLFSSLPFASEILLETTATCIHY
UniProt Q13232: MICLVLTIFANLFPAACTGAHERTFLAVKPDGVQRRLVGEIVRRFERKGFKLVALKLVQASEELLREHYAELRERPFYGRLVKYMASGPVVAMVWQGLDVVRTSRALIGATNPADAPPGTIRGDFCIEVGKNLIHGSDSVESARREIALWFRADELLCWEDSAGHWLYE
UniProt Q9NQR4: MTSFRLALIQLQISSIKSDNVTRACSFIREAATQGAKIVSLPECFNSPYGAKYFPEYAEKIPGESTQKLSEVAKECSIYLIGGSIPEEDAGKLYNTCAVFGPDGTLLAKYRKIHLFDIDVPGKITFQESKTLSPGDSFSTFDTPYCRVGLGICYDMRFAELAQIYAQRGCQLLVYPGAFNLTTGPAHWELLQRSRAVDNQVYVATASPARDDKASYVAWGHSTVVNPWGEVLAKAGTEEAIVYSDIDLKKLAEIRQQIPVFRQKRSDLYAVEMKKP
UniProt Q7RTP0: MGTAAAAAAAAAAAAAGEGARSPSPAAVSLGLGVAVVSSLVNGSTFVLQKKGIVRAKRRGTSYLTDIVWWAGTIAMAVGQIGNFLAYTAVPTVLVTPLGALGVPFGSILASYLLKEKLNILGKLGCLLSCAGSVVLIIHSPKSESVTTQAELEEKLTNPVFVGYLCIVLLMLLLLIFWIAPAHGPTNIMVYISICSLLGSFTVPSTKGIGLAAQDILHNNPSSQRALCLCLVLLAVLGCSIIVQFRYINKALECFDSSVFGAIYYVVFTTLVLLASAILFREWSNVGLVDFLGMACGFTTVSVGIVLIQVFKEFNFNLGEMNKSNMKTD
UniProt P18615, whole entry, looked up: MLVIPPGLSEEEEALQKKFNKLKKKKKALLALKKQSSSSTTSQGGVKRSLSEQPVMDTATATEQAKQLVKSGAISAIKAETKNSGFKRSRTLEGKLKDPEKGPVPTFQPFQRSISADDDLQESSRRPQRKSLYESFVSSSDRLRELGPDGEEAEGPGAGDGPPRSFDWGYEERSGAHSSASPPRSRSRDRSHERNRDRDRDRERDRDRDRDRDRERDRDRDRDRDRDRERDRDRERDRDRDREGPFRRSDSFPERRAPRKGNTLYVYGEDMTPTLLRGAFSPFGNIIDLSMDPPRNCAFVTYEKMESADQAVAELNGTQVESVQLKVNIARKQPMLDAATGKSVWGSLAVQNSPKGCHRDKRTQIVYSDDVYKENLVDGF
UniProt P16083: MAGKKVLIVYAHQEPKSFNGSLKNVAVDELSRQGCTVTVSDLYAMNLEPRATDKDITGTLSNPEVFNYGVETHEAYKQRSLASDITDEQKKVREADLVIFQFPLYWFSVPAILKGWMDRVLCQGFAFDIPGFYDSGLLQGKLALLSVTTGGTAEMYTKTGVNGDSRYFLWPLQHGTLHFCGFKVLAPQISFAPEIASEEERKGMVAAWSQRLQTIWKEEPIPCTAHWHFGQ
UniProt P25208: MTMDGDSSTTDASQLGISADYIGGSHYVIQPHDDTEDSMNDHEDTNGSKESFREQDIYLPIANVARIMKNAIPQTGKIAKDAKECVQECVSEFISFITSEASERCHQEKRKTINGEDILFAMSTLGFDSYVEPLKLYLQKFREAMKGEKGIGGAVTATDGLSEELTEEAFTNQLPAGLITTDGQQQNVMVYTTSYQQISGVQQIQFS
UniProt Q8IXM6: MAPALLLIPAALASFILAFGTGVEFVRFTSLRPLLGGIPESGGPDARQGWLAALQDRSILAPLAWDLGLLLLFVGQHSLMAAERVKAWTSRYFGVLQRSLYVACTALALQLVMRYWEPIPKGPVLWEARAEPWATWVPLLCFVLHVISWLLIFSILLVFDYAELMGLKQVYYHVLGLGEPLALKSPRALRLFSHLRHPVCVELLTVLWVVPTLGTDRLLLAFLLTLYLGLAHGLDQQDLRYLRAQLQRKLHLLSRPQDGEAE
UniProt Q9Y221: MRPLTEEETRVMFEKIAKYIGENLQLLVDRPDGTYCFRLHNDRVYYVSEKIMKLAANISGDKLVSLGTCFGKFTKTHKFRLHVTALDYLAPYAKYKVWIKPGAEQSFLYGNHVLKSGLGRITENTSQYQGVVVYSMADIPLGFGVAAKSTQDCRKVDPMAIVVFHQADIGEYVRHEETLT

How the values were obtained:
Assay in all cases: log2 fold change, soluble protein after heating vs DMSO (PISA); higher = thermal stabilisation; K562 cells, 10 uM, 30 min; active = over 0.2 and 3.5 SD of the protein, either way, in both replicates (recomputed)
erlotinib = compound: C#Cc1cccc(Nc2ncnc3cc(OCCOC)c(OCCOC)cc23)c1 [erlotinib]
Method in brief: (§1)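 Aliquots of K562 cells (2×10^6 cells/mL) treated with 10 μM compound for 30 min were heated for 3 min over 48°C-58°C. After pooling and extraction in PBS with 0.5% NP-40 at 4°C, soluble protein from a 21,000xg, 90 min spin was quantified by TMTpro 16plex LC-MS/MS with channel sums equalised. Thermal stability is expressed against control samples, from duplicates, as a log2 fold change.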

[1] = compound: C/C(=N\NC(=O)C1=CC(=CC=C1)S(=O)(=O)N2CCOCC2)/C3=C(C=CC(=C3)Cl)O
Method in brief: as §1

[2] = compound: C1=CC(=C(C=C1Cl)C2=NC3=NC=CN=C3C(=N2)NC4=CC=NC=C4)F
Method in brief: as §1

[3] = compound: C1=CC(=CC=C1C2=NC3=C(N2)C=C(C=C3)C(=O)N)OC4=CC=C(C=C4)Cl
Method in brief: as §1

[4] = compound: C1=CC2=C(C=CC(=C2)/C=C\3/C(=O)NC(=NCC4=CC=CS4)S3)N=C1
Method in brief: as §1

[5] = compound: C1=CC2=NC=CN=C2C=C1/C=C/3\C(=O)NC(=O)S3
Method in brief: as §1

[6] = compound: C1=CC=C(C=C1)C2=NC(=C(N2)C3=CC=NC=C3)C4=CC(=C(C=C4)Cl)O
Method in brief: as §1

[7] = compound: C1=CC=C2C(=C1)C3=NNC4=CC=CC(=C43)C2=O
Method in brief: as §1

[8] = compound: C1CCN(C1)C(=O)NC2=CC=CC(=C2)NC3=NC=C(C(=N3)NCCC4=CN=CN4)Br
Method in brief: as §1

[9] = compound: C1CN(CCC1(CC2=CC=C(C=C2)Cl)N)C3=NC=NC4=C3C=CN4
Method in brief: as §1

Measured: log2 fold change

NSF (UniProt P46459)
inactive: erlotinib 0.009 | [1] 0.065 | [2] 0.012 | [3] -0.003 | [4] 0.052 | [5] 0.009 | [6] -0.001 | [7] 0.051 | [8] 0.02 | [9] -0.038

NRAS (UniProt P01111)
inactive: erlotinib -0.072 | [1] 0.001 | [2] 0.02 | [3] 0.043 | [4] 0.002 | [5] 0.004 | [6] -0.043 | [7] -0.059 | [8] -0.048 | [9] 0.066

NOB1 (UniProt Q9ULX3)
inactive: erlotinib 0.048 | [1] 0.061 | [2] -0.106 | [3] 0.017 | [4] -0.025 | [5] -0.08 | [6] 0.081 | [7] 0.053 | [8] 0.045 | [9] -0.078

NME2 isoform 2 (UniProt P22392)
inactive: erlotinib 0.016 | [1] -0.011 | [2] 0.042 | [3] 0.002 | [4] 0.054 | [5] 0 | [6] -0.022 | [7] -0.023 | [8] 0.025 | [9] 0.055

NOL11 (UniProt Q9H8H0)
inactive: erlotinib -0.019 | [1] -0.065 | [2] 0.015 | [3] -0.007 | [4] -0.038 | [5] 0.042 | [6] 0.027 | [7] -0.005 | [8] -0.014 | [9] 0.079

NMI (UniProt Q13287)
inactive: erlotinib 0.023 | [1] 0.015 | [2] 0.081 | [3] 0.013 | [4] 0.056 | [5] -0.007 | [6] -0.011 | [7] 0 | [8] 0.023 | [9] 0.05

NMU (UniProt P48645)
inactive: erlotinib -0.003 | [1] 0.072 | [2] -0.02 | [3] 0.063 | [4] -0.123 | [5] 0.094 | [6] -0.129 | [7] -0.018 | [8] 0.025 | [9] 0.133

NIF3L1 (UniProt Q9GZT8)
inactive: erlotinib -0.011 | [1] -0.053 | [2] -0.057 | [3] 0.008 | [4] 0.032 | [5] -0.108 | [6] -0.025 | [7] -0.03 | [8] 0.011 | [9] 0.022

NFIA isoform 4 (UniProt Q12857)
inactive: erlotinib -0.066 | [1] -0.117 | [2] -0.062 | [3] 0.055 | [4] 0.101 | [5] 0.112 | [6] -0.045 | [7] -0.058 | [8] -0.104 | [9] 0.055

NIPA2 (UniProt Q8N8Q9)
inactive: erlotinib -0.001 | [1] 0.042 | [2] 0.107 | [3] 0.077 | [4] -0.003 | [5] 0.012 | [6] 0.025 | [7] -0.034 | [8] 0.005 | [9] 0.102

NSFL1C isoform 5 (UniProt Q9UNZ2)
inactive: erlotinib -0.005 | [1] 0.03 | [2] 0.045 | [3] 0.002 | [4] 0.019 | [5] 0.045 | [6] -0.02 | [7] -0.012 | [8] -0.013 | [9] -0.03

NQO1 (UniProt P15559)
active: [7] 0.269
inactive: erlotinib -0.064 | [1] 0.037 | [2] 0.089 | [3] -0.002 | [4] -0.06 | [5] -0.005 | [6] -0.014 | [8] -0.015 | [9] 0.065

NPC1 (UniProt O15118)
inactive: erlotinib 0.027 | [1] -0.033 | [2] -0.004 | [3] 0.025 | [4] -0.01 | [5] 0.028 | [6] 0.011 | [7] -0.027 | [8] 0.058 | [9] 0.069

NRF1 isoform 4 (UniProt Q16656)
inactive: erlotinib 0.079 | [1] 0.012 | [2] -0.161 | [3] -0.028 | [4] 0.053 | [5] -0.001 | [6] -0.012 | [7] -0.116 | [8] -0.051 | [9] -0.003

NEU1 (UniProt Q99519)
inactive: erlotinib 0.001 | [1] -0.05 | [2] -0.027 | [3] 0.101 | [4] 0.003 | [5] 0 | [6] -0.018 | [7] -0.011 | [8] 0.012 | [9] -0.047

NPLOC4 isoform 2 (UniProt Q8TAT6)
inactive: erlotinib 0.055 | [1] -0.026 | [2] 0.088 | [3] -0.022 | [4] 0.011 | [5] 0.003 | [6] 0.015 | [7] 0.024 | [8] -0.045 | [9] 0.044

NOMO2 (UniProt Q5JPE7)
inactive: erlotinib -0.03 | [1] 0.036 | [2] 0.004 | [3] -0.013 | [4] 0.045 | [5] 0.013 | [6] 0.037 | [7] 0.013 | [8] -0.019 | [9] 0.011

NME3 (UniProt Q13232)
inactive: erlotinib 0.033 | [1] -0.022 | [2] 0.075 | [3] 0.052 | [4] 0.034 | [5] 0.068 | [6] 0.009 | [7] -0.03 | [8] 0.008 | [9] 0.059

NIT2 (UniProt Q9NQR4)
inactive: erlotinib 0.012 | [1] 0.003 | [2] 0.069 | [3] 0.004 | [4] 0.041 | [5] 0.001 | [6] -0.065 | [7] -0.004 | [8] 0.009 | [9] 0.043

NIPA1 (UniProt Q7RTP0)
inactive: erlotinib 0.084 | [1] 0.114 | [3] -0.001 | [4] -0.006 | [5] -0.004 | [6] -0.008 | [7] -0.076 | [8] -0.005 | [9] 0.191

NISCH (UniProt Q9Y2I1)
inactive: erlotinib 0.141 | [1] 0.1 | [2] -0.083 | [3] 0.026 | [4] 0.089 | [5] 0.068 | [6] 0.044 | [7] -0.144 | [8] 0.039 | [9] -0.032

NELFE isoform 3 (UniProt P18615)
inactive: erlotinib -0.005 | [1] -0.024 | [2] -0.044 | [3] -0.013 | [4] -0.021 | [5] 0.027 | [6] 0.004 | [7] 0 | [8] -0.013 | [9] 0.011

NMT1 (UniProt P30419)
inactive: erlotinib -0.002 | [1] 0.001 | [2] 0.039 | [3] -0.009 | [4] -0.01 | [5] 0.07 | [6] -0.002 | [7] 0.05 | [8] 0.036
active: [9] -0.363

NQO2 (UniProt P16083)
inactive: erlotinib 0.016 | [1] -0.004 | [2] -0.014 | [3] 0.038 | [4] -0.025 | [5] -0.017 | [6] -0.035 | [7] -0.023 | [8] 0.023 | [9] 0.075

NFYB (UniProt P25208)
inactive: erlotinib 0.092 | [1] -0.102 | [3] -0.153 | [4] -0.047 | [5] 0.064 | [6] -0.036 | [7] -0.045 | [8] 0.01 | [9] -0.069

NPM3 (UniProt O75607)
inactive: erlotinib -0.083 | [1] -0.104 | [3] 0.02 | [4] -0.184 | [5] 0.04 | [6] -0.025 | [7] -0.022 | [8] -0.054 | [9] -0.087

NRM (UniProt Q8IXM6)
inactive: erlotinib 0.037 | [1] 0.004 | [2] 0.01 | [3] 0.026 | [4] 0.015 | [5] 0.083 | [7] 0.038 | [8] -0.252 | [9] 0.01

NIP7 (UniProt Q9Y221)
inactive: erlotinib -0.028 | [1] -0.122 | [2] -0.374 | [3] -0.039 | [4] -0.181 | [5] 0.257 | [6] -0.048 | [7] 0.035 | [8] 0.037 | [9] 0.038

Random excerpt: 2 entries already listed, in no set order.
NPC1 (UniProt O15118)
inactive: erlotinib 0.027 | [1] -0.033 | [2] -0.004 | [3] 0.025 | [4] -0.01 | [5] 0.028 | [6] 0.011 | [7] -0.027 | [8] 0.058 | [9] 0.069

NRF1 isoform 4 (UniProt Q16656)
inactive: erlotinib 0.079 | [1] 0.012 | [2] -0.161 | [3] -0.028 | [4] 0.053 | [5] -0.001 | [6] -0.012 | [7] -0.116 | [8] -0.051 | [9] -0.003
